Variants at the background level are over-represented here.
Experiments:
biotinyl-Trp-oxazolone = test: self-aminoacylation, catalytic enhancement (BWO) (fold over background); higher = more active; k-Seq, kA / k0A0; sequences stand for … in GGGAAUGGAUCCACAUCUACGAAUUC…UUCACUGCAGACUUGACGAAGCUG
In short: (§1)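 Mutagenized RNA pools (0.43 μM; 21-nt variable region) were treated with 2–1250 μM of each biotinyl-aminoacyl-oxazolone. Conditions were 50 μL HEPES/NaCl/KCl/MgCl2/CaCl2 buffer, 5% acetonitrile, pH 6.9–7.0, room temperature, 90 minutes. Catalytic enhancement, the median kA relative to the uncatalyzed rate, was derived from streptavidin capture, qPCR and Illumina sequencing.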

biotinyl-Leu-oxazolone = test: self-aminoacylation, catalytic enhancement (BLO) (fold over background); higher = more active; k-Seq, kA / k0A0; sequences stand for … in GGGAAUGGAUCCACAUCUACGAAUUC…UUCACUGCAGACUUGACGAAGCUG
In short: as §1

biotinyl-Val-oxazolone = test: self-aminoacylation, catalytic enhancement (BVO) (fold over background); higher = more active; k-Seq, kA / k0A0; sequences stand for … in GGGAAUGGAUCCACAUCUACGAAUUC…UUCACUGCAGACUUGACGAAGCUG
In short: as §1

biotinyl-Ile-oxazolone = test: self-aminoacylation, catalytic enhancement (BIO) (fold over background); higher = more active; k-Seq, kA / k0A0; sequences stand for … in GGGAAUGGAUCCACAUCUACGAAUUC…UUCACUGCAGACUUGACGAAGCUG
In short: as §1

biotinyl-Met-oxazolone = test: self-aminoacylation, catalytic enhancement (BMO) (fold over background); higher = more active; k-Seq, kA / k0A0; sequences stand for … in GGGAAUGGAUCCACAUCUACGAAUUC…UUCACUGCAGACUUGACGAAGCUG
In short: as §1

biotinyl-Phe-oxazolone = test: self-aminoacylation, catalytic enhancement (BFO) (fold over background); higher = more active; k-Seq, kA / k0A0; sequences stand for … in GGGAAUGGAUCCACAUCUACGAAUUC…UUCACUGCAGACUUGACGAAGCUG
In short: as §1

Row | Sequence | self-aminoacylation (biotinyl-Trp-oxazolone) | self-aminoacylation (biotinyl-Leu-oxazolone) | self-aminoacylation (biotinyl-Val-oxazolone) | self-aminoacylation (biotinyl-Ile-oxazolone) | self-aminoacylation (biotinyl-Met-oxazolone) | self-aminoacylation (biotinyl-Phe-oxazolone)
1 | CUACUUGACACAAUCGGUCUG [Fam1A.1 aminoacylation ribozyme variant] | 0.418 | 0.67 | 0.744 | 0.666 | 0.737 | 0.667
2 | CUACUUGCAACAAUCGGUCUG [Fam1A.1 aminoacylation ribozyme variant] | 0.574 | 0.641 | 0.682 | 0.67 | 0.776 | 0.525
3 | CUACUUUAAACAAACGGUCUG [Fam1A.1 aminoacylation ribozyme variant] | 0.502 | 0.776 | 0.905 | 0.989 | 0.91 | 0.644
4 | CUACUUUAAACAAUCUGUCUG [Fam1A.1 aminoacylation ribozyme variant] | 0.427 | 0.62 | 0.759 | 0.707 | 0.642 | 0.636
5 | CUACUUUAUACAAUCGGUCUG [Fam1A.1 aminoacylation ribozyme variant] | 0.626 | 0.808 | 0.882 | 0.857 | 0.832 | 0.815
6 | CUACUUUGAACAAUCGGUCUG [Fam1A.1 aminoacylation ribozyme variant] | 0.593 | 0.588 | 0.647 | 0.705 | 0.633 | 0.451
7 | CUAUUUCAAACAAUCGGUAUG [Fam1A.1 aminoacylation ribozyme variant] | 0.893 | 0.624 | 0.559 | 0.649 | 0.727 | 1.62
8 | CUAUUUCAAACAAUCGGUCCG [Fam1A.1 aminoacylation ribozyme variant] | 0.945 | 0.816 | 0.683 | 0.682 | 0.802 | 0.799
9 | CUAUUUCAAACAAUCGGUUUG [Fam1A.1 aminoacylation ribozyme variant] | 3.18 | 1 | 0.81 | 0.907 | 0.903 | 4.11
10 | CUCUUUCAAACAAUCGGUCUG [Fam1A.1 aminoacylation ribozyme variant] | 9.95 | 1.21 | 0.908 | 0.972 | 1.13 | 14.2
11 | CUUACCCUGGUGAUCGAGUGA [Fam2.1 aminoacylation ribozyme variant] | 5.52 | 4.36 | 2.81 | 2.65 | 4.51 | 14.5
12 | CUUCCUCAAACAAUCGGUCUG [Fam1A.1 aminoacylation ribozyme variant] | 1.06 | 0.827 | 0.905 | 0.739 | 0.789 | 1.15
13 | CUUCUUCAAACAAUCGUUCUG [Fam1A.1 aminoacylation ribozyme variant] | 0.804 | 0.65 | 0.6 | 0.68 | 0.62 | 1.06
14 | CUUCUUCCAACAAUCGGUCUG [Fam1A.1 aminoacylation ribozyme variant] | 1.11 | 0.665 | 0.697 | 0.773 | 0.824 | 0.858
15 | CUUCUUUAAACAAUCGGUCUG [Fam1A.1 aminoacylation ribozyme variant] | 0.783 | 0.851 | 0.788 | 0.898 | 0.95 | 1.13
16 | GACUUUGCUAAUAGUCGCAAG [Fam3.1 aminoacylation ribozyme variant] | 1.97 | 1.85 | 1.72 | 1.74 | 2.11 | 2.88
17 | GAGUUUGCUAAUAGACGCAAG [Fam3.1 aminoacylation ribozyme variant] | 1.06 | 0.552 | 0.606 | 0.707 | 0.407 | 0.88
18 | GCACACUUCAAGCAAUCGUUC [Fam1B.1 aminoacylation ribozyme variant] | 1.36 | 0.816 | 1.16 | 1.13 | 0.898 | 1.2
19 | GCCCACUUCAAGCAAUCGGUC [Fam1B.1 aminoacylation ribozyme variant] | 18.7 | 1.77 | 1.67 | 1.42 | 1.27 | 24.1
20 | GUACUUCAAACAAUCGAUCUG [Fam1A.1 aminoacylation ribozyme variant] | 1.64 | 0.862 | 0.987 | 1.18 | 0.863 | 1.72
21 | GUAGUUCAAACAAUCGGUCUG [Fam1A.1 aminoacylation ribozyme variant] | 1.62 | 0.827 | 0.855 | 0.92 | 0.808 | 1.4
22 | GUUACACUGGUCAUCGAGUGA [Fam2.1 aminoacylation ribozyme variant] | 8.81 | 6.76 | 4.18 | 4.91 | 6.79 | 28.9

Row | Sequence | self-aminoacylation (biotinyl-Trp-oxazolone) | self-aminoacylation (biotinyl-Leu-oxazolone) | self-aminoacylation (biotinyl-Val-oxazolone) | self-aminoacylation (biotinyl-Ile-oxazolone) | self-aminoacylation (biotinyl-Met-oxazolone) | self-aminoacylation (biotinyl-Phe-oxazolone)
23 | GUUACCCUGGCCAUCGAGUGA [Fam2.1 aminoacylation ribozyme variant] | 9.03 | 8.07 | 5 | 4.06 | 6.73 | 43.7
24 | GUUACCCUGGUCAUUGAGUGA [Fam2.1 aminoacylation ribozyme variant] | 13 | 11 | 5.29 | 4.72 | 10.2 | 71.3
25 | GUUCACCUAGGUCUUCGGGUG [Fam2.2 aminoacylation ribozyme variant] | 5.22 | 5.73 | 4.05 | 3.83 | 4.89 | 33.8
26 | GUUCACCUAGGUUAUCGGGUG [Fam2.2 aminoacylation ribozyme variant] | 5.35 | 4.08 | 3.44 | 3.41 | 4.84 | 34
27 | UAAUUUGCUAAUAGUCGCAAG [Fam3.1 aminoacylation ribozyme variant] | 2.01 | 1.76 | 1.67 | 1.84 | 1.41 | 2.21
28 | UAGUUUGAUAAUAGUCGCAAG [Fam3.1 aminoacylation ribozyme variant] | 1.42 | 1.41 | 1.17 | 1.6 | 1.56 | 1.41
29 | UAGUUUGCUAAUAGACGCAAG [Fam3.1 aminoacylation ribozyme variant] | 0.544 | 0.478 | 0.943 | 0.937 | 0.704 | 1.09
30 | UAGUUUGCUAAUAGUCUCAAG [Fam3.1 aminoacylation ribozyme variant] | 1.59 | 1.01 | 1.12 | 1.33 | 1.03 | 3.9
31 | UCACACCUCAAGCAAUCGGUC [Fam1B.1 aminoacylation ribozyme variant] | 1.55 | 1.01 | 1.12 | 1 | 0.863 | 1.58
32 | UCACACUUCAAGCAAUCUGUC [Fam1B.1 aminoacylation ribozyme variant] | 0.375 | 0.374 | 0.494 | 0.398 | 0.447 | 0.825
33 | UCUACCCUGGUCAUCGAGUGA [Fam2.1 aminoacylation ribozyme variant] | 12.6 | 9.36 | 5.79 | 5.18 | 10.4 | 14.6
34 | UUACACUUCAAGCAAUCGGUC [Fam1B.1 aminoacylation ribozyme variant] | 15.7 | 1.5 | 1.14 | 1.25 | 1.26 | 30.4
35 | UUACUUCAAACAAGCGGUCUG [Fam1A.1 aminoacylation ribozyme variant] | 1.11 | 1.05 | 0.905 | 1.25 | 1.48 | 6.3
36 | UUACUUCAAACAAUCGAUCUG [Fam1A.1 aminoacylation ribozyme variant] | 0.866 | 0.824 | 0.719 | 0.852 | 0.711 | 1.8
37 | UUACUUCAAACACUCGGUCUG [Fam1A.1 aminoacylation ribozyme variant] | 1.24 | 1.15 | 1.08 | 1.24 | 1.19 | 1.11
38 | UUACUUCAAACAGUCGGUCUG [Fam1A.1 aminoacylation ribozyme variant] | 1.25 | 1.19 | 1.15 | 1.29 | 1.36 | 1.92
39 | UUACUUCAAACCAUCGGUCUG [Fam1A.1 aminoacylation ribozyme variant] | 1.02 | 0.847 | 1.03 | 1.09 | 1.06 | 1.23
40 | UUACUUCAAACGAUCGGUCUG [Fam1A.1 aminoacylation ribozyme variant] | 1.38 | 0.848 | 0.809 | 0.933 | 0.846 | 0.951
41 | UUACUUCACACAAUCGGUCUG [Fam1A.1 aminoacylation ribozyme variant] | 1.03 | 1.17 | 1.28 | 1.27 | 1.06 | 1.66
42 | UUACUUCCAACAAUCGGUCUG [Fam1A.1 aminoacylation ribozyme variant] | 1.12 | 0.947 | 0.981 | 0.943 | 0.999 | 1.09
43 | UUUACCCUGGUCAUCGAGUGG [Fam2.1 aminoacylation ribozyme variant] | 29.3 | 27.3 | 9.95 | 8.85 | 31.5 | 154
44 | UUUCACCUAGGUCACCGGGUG [Fam2.2 aminoacylation ribozyme variant] | 5.47 | 5.2 | 3.87 | 3.8 | 3.77 | 26.7
